This is one part of the list. The main result of the screen is listed elsewhere. These columns were measured beside it and carry no call. The list favours compounds with an active or inconclusive main result. Potencies come from curve fits of mixed quality, noted in brackets.
Assay: IkB Signaling
Settings: ABC-DLBCL IkBa-CBG/CBR dual luciferase ratio (green luciferase fused to IkBa over red control in OCI-Ly3 lymphoma cells), 4 h
Summary of the method: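 Luminescence ratio of IκBα-fused green versus native red beetle luciferase in OCI-Ly3 cells, 4 h post-doxycycline with compound; red signal alone, scaled from basal (0%) to zero light (-100%), flagged nonspecific or cytotoxic effects.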

[1] = measured here: control luc red channel unless noted
[2] = measured here: IkB-luc green channel
[3] = measured here: control luc red channel

COc1ccc(NC(=O)c2ccc3c(c2)c(C)c(C)n3Cc2ccc(F)cc2)cc1
AC50 [1]: 7.94 µM [rising, partial curve]

O=C(Nc1cccc(F)c1)c1ccc2c(c1)OCO2
AC50 [1]: 39.8 µM [falling, single point]

Cc1c(Cl)cccc1-n1ncc(C(=O)NCc2cccs2)c1C1CCN(C(=O)OC(C)(C)C)CC1
AC50 [1]: 20 µM [falling, partial curve]

O=C(CSc1nnnn1-c1ccc(Cl)cc1)N1CCc2ccccc2C1
AC50 [1]: 31.6 µM [falling, single point]

COc1ccc(-n2c(Cc3cccn3C)nnc2SCC(=O)Nc2cccc(Cl)c2)cc1
AC50 [1]: 12.6 µM [falling, partial curve]

COc1ccc(Cl)cc1NC(=O)Cn1nc(Cc2ccncc2)c2ccccc2c1=O
AC50 [1]: 15.8 µM [falling, single point]

Cc1ccc(OC(=O)CSc2nnc(-c3cccs3)o2)cc1C
AC50 [1]: 20 µM [falling, single point]

CCOc1ccc(-n2c(SCC(=O)N3CCCCCC3)nc3c([nH]c4ccccc43)c2=O)cc1
AC50 [1]: 0.0158 µM [rising, full curve, poor fit]

CCn1cc(C(=O)NCCc2ccc(OC)c(OC)c2)c(=O)c2cc(S(=O)(=O)N3CCC(C)CC3)ccc21
AC50 [1]: 0.251 µM [rising, full curve]

CC(C)Cn1c(N)c(C(=O)COC(=O)c2ccc3ccccc3n2)c(=O)n(C)c1=O
AC50 [1]: 25.1 µM [falling, single point]

CC(C)(C)C1CCc2c(sc3nnn(CCOc4ccccc4)c(=O)c23)C1 (centres undefined)
AC50 [1]: 5.01 µM [falling, partial curve]

COc1cc(NC(=O)c2nc3ccccc3nc2N2CCCCC2)cc(OC)c1OC
AC50 [1]: 15.8 µM [falling, partial curve]

Cc1cccc(-c2nc(CSCC(=O)NCCc3ccc(Cl)cc3)c(C)o2)c1
AC50 [1]: 15.8 µM [falling, partial curve]

Cc1ccc(CNC(=O)c2ccc(-c3nc(CS(=O)c4ccccc4)c(C)o3)cc2)cc1 (centres undefined)
AC50 [1]: 25.1 µM [falling, single point]

CCCCn1c2c(c(=O)n(C)c1=O)C(CC(=O)OCC(=O)Nc1cccc(C(F)(F)F)c1)C(=O)N2 (centres undefined)
AC50 [1]: 15.8 µM [falling, partial curve]

O=C(CCCn1c(=S)[nH]c2cc3c(cc2c1=O)OCO3)N1CCN(c2ccccc2)CC1
AC50 [1]: 10 µM [falling, partial curve]

COc1cccc(-c2nn(C)c3sc(C(=O)Nc4ccc5c(c4)OCCO5)cc23)c1
AC50 [1]: 2 µM [falling, full curve]

COCCn1ccc2c(OCC(=O)Nc3ccccc3F)cccc2c1=O
AC50 [1]: 0.0316 µM [falling, full curve]

CCOC(=O)N1CCc2c(sc3c2c(=O)n(CCc2ccccc2)c(=O)n3CC(=O)Nc2cccc(C)c2)C1
AC50 [1]: 10 µM [falling, partial curve]

N#C/C(=C/c1cn(Cc2ccccc2Cl)c2ccccc12)C(=O)Nc1cccc(Cl)c1
AC50 [1]: 0.794 µM [falling, full curve]

Cc1cc(C)c(NC(=O)Cn2c(=O)nc(-c3ccccc3)c3cc(Cl)ccc32)c(C)c1
AC50 [1]: 12.6 µM [falling, partial curve]

COc1ccccc1N=c1oc2c(OC)cccc2cc1C(=O)NCc1ccco1
AC50 [1]: 5.01 µM [falling, partial curve]

COc1cc(NC(=O)N2CCC3(CC2)Nc2cc(F)ccc2-n2cccc23)cc(OC)c1OC
AC50 [1]: 25.1 µM [falling, partial curve, poor fit]

CCc1cccc(CC)c1-n1nnc2c(sc3nc(C)cc(C)c32)c1=O
AC50 [1]: 0.2 µM [rising, full curve, poor fit]

O=C(CSc1nc(-c2ccc(F)cc2)[nH]c1-c1ccccc1)Nc1ccccc1
AC50 [2]: 39.8 µM [rising, single point] | AC50 [3]: 5.01 µM [falling, single point]

O=C(OCc1nnc(-c2ccccc2)o1)c1ccc2c(c1)OCCO2
AC50 [1]: 15.8 µM [falling, partial curve]

Clc1ccc(OCc2nc3ccccc3n2Cc2ccccc2)c(Cl)c1
AC50 [1]: 25.1 µM [falling, single point]

COc1ccc(S(=O)(=O)c2c(SC)nn(CC(=O)Nc3cccc(C)c3C)c2N)cc1
AC50 [1]: 12.6 µM [falling, partial curve]

Cc1ccc2c(c1)NC(=O)c1cccnc1O2
AC50 [1]: 6.31 µM [rising, partial curve]

Cc1[nH]nc2c1C(c1ccc(-c3ccccc3C#N)o1)C(C#N)=C(N)O2 (centres undefined)
AC50 [1]: 39.8 µM [falling, single point]

Cc1cccc(OCC(O)Cn2c(=N)n(CCN3CCCCC3)c3ccccc32)c1 (centres undefined)
AC50 [1]: 25.1 µM [falling, partial curve]

CCn1cc(C(=O)NCc2ccc(C)cc2)c(=O)c2cc(S(=O)(=O)N(C)C3CCCCC3)ccc21
AC50 [1]: 3.98 µM [falling, full curve]

CCc1ccc(CN(Cc2ccco2)C(=O)COc2ccc(Cl)c(C)c2)cc1
AC50 [1]: 31.6 µM [falling, partial curve]

CCC(C)NC(=O)CSc1nc2c(sc3ccccc32)c(=O)n1CCc1ccc(OC)c(OC)c1 (centres undefined)
AC50 [1]: 0.00794 µM [rising, full curve, poor fit]

CCN(c1ccccc1)S(=O)(=O)c1ccc(Oc2ccc(-n3ccnc3)cc2)nc1
AC50 [1]: 31.6 µM [falling, partial curve]

CCC(C)NC(=O)c1cc(-c2ccccc2O)on1 (centres undefined)
AC50 [1]: 0.00398 µM [falling, full curve]

Cc1cc(C)n(-c2nc3cc(Cl)ccc3nc2Nc2ccc(CC(=O)O)cc2)n1
AC50 [1]: 20 µM [falling, partial curve]

Cc1ccc(Nc2nc(N)nc(CN3CCN(c4ccccc4)CC3)n2)cc1Cl
AC50 [1]: 12.6 µM [falling, partial curve]

CCCCn1c(NCc2cc(Br)ccc2O)nc2ccccc21
AC50 [1]: 20 µM [falling, partial curve]

Cc1cccc(NC(c2ccccc2C)c2ccc3ccc(C)nc3c2O)n1 (centres undefined)
AC50 [2]: 6.31 µM [rising, single point] | AC50 [3]: 25.1 µM [falling, single point]

Cc1ccc(C(=O)Oc2c(S(=O)(=O)c3ccccc3)c(C)nn2-c2ccccc2)cc1
AC50 [1]: 10 µM [falling, partial curve]

CN1C(=O)c2ccccc2Sc2ccc(NC(=O)NCc3cccc(Cl)c3)cc21
AC50 [1]: 7.94 µM [falling, partial curve]

COc1ccc(-n2c(-c3ccc(C)cc3)cc3c2CC(C)(C)CC3=O)c(OC)c1
AC50 [1]: 31.6 µM [falling, partial curve]

Cc1c(-c2nc(-c3ccccc3F)no2)nnn1-c1cc(F)ccc1F
AC50 [1]: 0.794 µM [rising, full curve]

O=c1oc2cc(O)ccc2cc1-c1nnc(Nc2ccccc2F)s1
AC50 [1]: 0.398 µM [falling, full curve]

CCn1c(C(=O)N2CCC(C(=O)NCCCSC3CCCCC3)CC2)cc2sccc21
AC50 [1]: 12.6 µM [falling, partial curve]

COCCCNC(=O)c1ccc2nc3ccccc3c(=O)n2c1
AC50 [1]: 3.16 µM [falling, full curve]

COc1ccc(CCNC(=O)c2ccc3c(c2)N(Cc2ccccc2F)C(=O)c2ccccc2S3=O)cc1OC (centres undefined)
AC50 [1]: 0.631 µM [rising, full curve]

CCOC(=O)c1ccc(NS(=O)(=O)c2ccc(SC)cc2)cc1
AC50 [1]: 15.8 µM [falling, partial curve]

O=C(CN1C(=O)COc2ccc(S(=O)(=O)N3CCCC3)cc21)N1CCN(c2cccc(C(F)(F)F)c2)CC1
AC50 [1]: 3.98 µM [falling, partial curve]

COc1ccc(N2CCN(S(=O)(=O)CCNC(=O)COc3ccccc3F)CC2)cc1
AC50 [1]: 10 µM [falling, partial curve, poor fit]

O=C(c1ccco1)N1CCN(C(=O)C2CC(c3ccc(Cl)c(Cl)c3)=NO2)CC1 (centres undefined)
AC50 [1]: 20 µM [falling, single point]

Cc1ccc2c(c1C)NC(=O)CC2c1ccc(Cl)cc1Cl (centres undefined)
AC50 [1]: 39.8 µM [falling, single point]

Cc1ccc(OCC(=O)Nc2cccc(C(=O)OCc3cc(=O)n4nc(C)sc4n3)c2)cc1
AC50 [1]: 3.16 µM [falling, full curve]

Cc1ccc2c(c1)nnn2C1CCN(CC(=O)N2c3ccccc3CC2C)CC1 (centres undefined)
AC50 [1]: 31.6 µM [falling, single point]

O=C(O)c1ccc(NC(=O)c2cn(-c3ccccc3)nc2-c2ccc(Br)cc2)cc1
AC50 [1]: 10 µM [falling, partial curve]

O=C(CCCCn1c(=O)c2ccccc2n(CC(=O)Nc2ccc(F)cc2)c1=O)NCc1ccco1
AC50 [1]: 0.398 µM [falling, full curve]

Cc1c(-c2nc(N)nc(Nc3ccccc3F)n2)oc2ccccc12
AC50 [1]: 0.00794 µM [falling, full curve]

COc1ccc(OC)c(S(=O)(=O)N(C)CC(=O)N2CCN(c3cccc(Cl)c3)CC2)c1
AC50 [1]: 25.1 µM [falling, partial curve]

CCOc1ccc(OCc2ccc(C(=O)OCc3ccccn3)o2)cc1
AC50 [1]: 25.1 µM [falling, partial curve]

Cc1ccc(-c2[nH]c(-c3ccccc3)nc2SCC(=O)NCC2CCCO2)cc1 (centres undefined)
AC50 [1]: 20 µM [falling, partial curve]

CCNC(=O)NC(=O)COC(=O)c1ccccc1SCC(=O)NC(=O)NCC
AC50 [1]: 2.51 µM [falling, full curve]
